{"source": "PubChem BioAssay AID1259283 (Sanger Institute, 2017)", "screen": "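Kinome-wide siRNA search for kinases acting with BYL719, cetuximab or trametinib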 (primary screen)", "cell system": "HT115 colorectal cancer cells", "reagent": "siRNA pool against human genes", "conditions": "anchor drug given one day after siRNA: BYL719 at 1 µM, cetuximab at 5 µg/ml, trametinib at 10 nM, or DMSO vehicle alone", "measurement": "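Per-drug synergy scores plus replicate-mean viability relative to non-targeting pool #2 wells, also expressed as a robust z-score based on control wells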", "reading the numbers": "robust z-score, knock-down alone: higher = more viable cells after knock-down; viability, DMSO vs non-targeting control: higher = more viable cells", "units": "viability, DMSO vs non-targeting control in fraction of control", "active means": "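a gene counts as essential when its robust z-score with knock-down alone is below -3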", "meaning of the calls": "active = essential (z below -3, no drug); inactive = no change without drug", "note": "The whole screen tested 794 reagents; this is an unselected part. In the full data, 14 (1.8%) were called active. 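Calls reflect only viability loss without drug; drug synergy does not enter the call.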 A number with no mark means an inactive call. No viability above 1 is reported: the scale is capped. Further read-outs or replicates are left out here. No sequences are given here. Not stated in the record: the amount of reagent, the time to read-out."}
{"gene": "ERBB4", "robust z-score, knock-down alone": -0.584, "viability, DMSO vs non-targeting control": 0.873}
{"gene": "MASTL", "robust z-score, knock-down alone": -2.18, "viability, DMSO vs non-targeting control": 0.725}
{"gene": "STRADB", "robust z-score, knock-down alone": -1.81, "viability, DMSO vs non-targeting control": 0.76}
{"gene": "MAP3K8", "robust z-score, knock-down alone": 0.32, "viability, DMSO vs non-targeting control": 0.957}
{"gene": "PRPS2", "robust z-score, knock-down alone": 0.789, "viability, DMSO vs non-targeting control": 1}
{"gene": "MTOR", "robust z-score, knock-down alone": 0.789, "viability, DMSO vs non-targeting control": 1}
{"gene": "FLT3", "robust z-score, knock-down alone": 0.292, "viability, DMSO vs non-targeting control": 0.954}
{"gene": "LATS1", "robust z-score, knock-down alone": 0.74, "viability, DMSO vs non-targeting control": 0.996}
{"gene": "PKN3", "robust z-score, knock-down alone": 0.789, "viability, DMSO vs non-targeting control": 1}
{"gene": "CDK11A", "robust z-score, knock-down alone": -0.413, "viability, DMSO vs non-targeting control": 0.889}
{"gene": "CDKL3", "robust z-score, knock-down alone": -0.246, "viability, DMSO vs non-targeting control": 0.904}
{"gene": "MAPK9", "robust z-score, knock-down alone": 0.595, "viability, DMSO vs non-targeting control": 0.982}
{"gene": "PRP4K", "robust z-score, knock-down alone": 0.481, "viability, DMSO vs non-targeting control": 0.972}
{"gene": "PDK2", "robust z-score, knock-down alone": -0.524, "viability, DMSO vs non-targeting control": 0.879}
{"gene": "FXN", "robust z-score, knock-down alone": 0.027, "viability, DMSO vs non-targeting control": 0.93}
{"gene": "TBCK", "robust z-score, knock-down alone": 0.789, "viability, DMSO vs non-targeting control": 1}
{"gene": "NF1", "robust z-score, knock-down alone": -0.783, "viability, DMSO vs non-targeting control": 0.855}
{"gene": "DYRK1B", "robust z-score, knock-down alone": -1.33, "viability, DMSO vs non-targeting control": 0.804}
{"gene": "MAGI1", "robust z-score, knock-down alone": -0.654, "viability, DMSO vs non-targeting control": 0.867}
{"gene": "PFKM", "robust z-score, knock-down alone": 0.579, "viability, DMSO vs non-targeting control": 0.981}
{"gene": "PTPN11", "robust z-score, knock-down alone": 0.789, "viability, DMSO vs non-targeting control": 1}
{"gene": "PAPSS1", "robust z-score, knock-down alone": -0.167, "viability, DMSO vs non-targeting control": 0.912}
{"gene": "IRAK4", "robust z-score, knock-down alone": 0.789, "viability, DMSO vs non-targeting control": 1}
{"gene": "KRAS", "robust z-score, knock-down alone": -0.342, "viability, DMSO vs non-targeting control": 0.895}
{"gene": "NADK", "robust z-score, knock-down alone": 0.789, "viability, DMSO vs non-targeting control": 1}
{"gene": "MYO3A", "robust z-score, knock-down alone": -1.58, "viability, DMSO vs non-targeting control": 0.781}
{"gene": "FGR", "robust z-score, knock-down alone": 0.571, "viability, DMSO vs non-targeting control": 0.98}
{"gene": "CDK5", "robust z-score, knock-down alone": -0.0632, "viability, DMSO vs non-targeting control": 0.921}

Laid out differently: entries from further up.
| gene | robust z-score, knock-down alone | viability, DMSO vs non-targeting control |
| --- | --- | --- |
| PKN3 | 0.789 | 1 |
| CDK11A | -0.413 | 0.889 |
